Measurements: patent US20090208489A1
No constants are given. Whether binding was seen depends on the method and setting. Some binding calls cover weakened binding; strength is not graded here. For some assays here: Tags and fused reporters may be left off the sequences shown.

Tests used:
[1] = molecular target: OV064(32-282) expressed on transfected ES-2 ovarian carcinoma cells (human) (UniProt Q7Z7D3); assay: flow cytometry, supernatants and purified mAb
[2] = molecular target: T1, recombinant OV064-His fusion protein (FLAG-OV064(32-257)-His, from 293 cells) (human) (UniProt Q7Z7D3); assay: ELISA screen, OV064-His
T1 sequence: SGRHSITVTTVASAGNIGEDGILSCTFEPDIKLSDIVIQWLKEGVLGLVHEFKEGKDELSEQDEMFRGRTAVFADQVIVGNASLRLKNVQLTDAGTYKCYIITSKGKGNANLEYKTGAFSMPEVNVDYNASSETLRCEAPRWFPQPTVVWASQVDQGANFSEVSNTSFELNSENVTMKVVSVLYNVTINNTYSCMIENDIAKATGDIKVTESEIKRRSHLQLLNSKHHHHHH

[3] = molecular target: OV064(32-282) expressed on transfected ES-2 ovarian carcinoma cells (human) (UniProt Q7Z7D3); assay: flow cytometry screen, ES2/OV064 cells
[4] = molecular target: T1, recombinant OV064-His fusion protein (FLAG-OV064(32-257)-His, from 293 cells) (human); assay: ELISA
[5] = molecular target: OV064(32-282) expressed on transfected ES-2 ovarian carcinoma cells (human) (UniProt Q7Z7D3); assay: flow cytometry

Measured: binding

B1: human monoclonal antibody mAb sc189 (antibody, human IgG1, kappa, V domains shown)
VH: EVQLVESGGGLVQPGGSLRLSCAASGFSFSSYDMHWVRQATGKGLEWVSGIDIAGDTYYPGSVKGRFTISRENAKNSLYLQMNSLRAGDTAVYYCARGDYDGTFDYWGQGTLVTVSS
VL: DIVMTQTPLSSPVTLGQPASISCRSSQSLVHSDGNTYLSWLQQRPGQPLRLLFYKISNRFSGVPDRFSGSGAGTDFTLIINRVEAEDVGVYYCMHATQFPITFGQGTRLEIKR
binds: [1] | [2] | [3] | [4] | [5]
